Publication doi:10.1101/2025.06.12.659276
No constants are given. Whether binding was seen depends on the method and setting. In cells and extracts the contact can be indirect. Some binding calls cover weakened binding; strength is not graded here.

By UniProt entry, the sequences of proteins in these tests, tags left out.
UniProt P69332: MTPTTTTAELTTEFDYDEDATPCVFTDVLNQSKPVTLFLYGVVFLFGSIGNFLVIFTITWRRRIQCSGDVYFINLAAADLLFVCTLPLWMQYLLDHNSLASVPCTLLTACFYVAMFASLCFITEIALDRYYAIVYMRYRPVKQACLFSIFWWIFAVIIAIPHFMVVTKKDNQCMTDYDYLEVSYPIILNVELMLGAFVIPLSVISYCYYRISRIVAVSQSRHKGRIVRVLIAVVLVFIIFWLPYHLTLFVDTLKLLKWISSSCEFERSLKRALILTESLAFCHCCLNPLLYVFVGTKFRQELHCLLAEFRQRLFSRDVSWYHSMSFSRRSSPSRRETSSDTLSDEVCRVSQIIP
UniProt P49407: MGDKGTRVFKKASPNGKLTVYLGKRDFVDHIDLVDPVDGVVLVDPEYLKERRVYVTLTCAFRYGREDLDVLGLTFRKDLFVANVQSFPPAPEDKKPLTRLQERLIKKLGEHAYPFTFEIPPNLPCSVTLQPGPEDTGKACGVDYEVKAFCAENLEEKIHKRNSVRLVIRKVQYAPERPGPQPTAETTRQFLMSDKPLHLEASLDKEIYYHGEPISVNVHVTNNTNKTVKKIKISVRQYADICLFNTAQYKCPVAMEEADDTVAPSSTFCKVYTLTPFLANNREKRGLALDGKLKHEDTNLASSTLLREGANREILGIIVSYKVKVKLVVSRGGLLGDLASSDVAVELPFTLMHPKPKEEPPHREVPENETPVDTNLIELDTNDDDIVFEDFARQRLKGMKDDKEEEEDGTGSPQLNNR
UniProt P32121: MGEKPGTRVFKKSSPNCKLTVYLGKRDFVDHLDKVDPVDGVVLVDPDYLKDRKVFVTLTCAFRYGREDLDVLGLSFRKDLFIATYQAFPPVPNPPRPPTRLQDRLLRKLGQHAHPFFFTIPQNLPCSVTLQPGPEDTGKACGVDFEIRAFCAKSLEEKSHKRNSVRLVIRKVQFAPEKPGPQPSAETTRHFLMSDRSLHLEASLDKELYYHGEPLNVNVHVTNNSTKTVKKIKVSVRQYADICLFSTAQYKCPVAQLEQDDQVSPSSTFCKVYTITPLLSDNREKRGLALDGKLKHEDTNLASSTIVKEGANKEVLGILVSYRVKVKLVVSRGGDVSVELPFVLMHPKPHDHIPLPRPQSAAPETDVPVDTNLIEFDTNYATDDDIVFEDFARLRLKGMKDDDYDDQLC

Target: US28-Rluc (human cytomegalovirus) (UniProt P69332)
Experiment: FRET or BRET; net BRET titration (saturation) curves in living U251 cells: increasing β-arrestin 1/2 fused to GFP10 with fixed amounts of US28-Rluc, US28-PDCT-Rluc or Rluc; Tyrode's buffer pH 7.4, 37°C, coelenterazine 400a

Substance | binding
β-arrestin1-GFP10 (from UniProt P49407 1-418) | binds
βarrestin2-GFP10 (from UniProt P32121 1-409) | binds
